The text below walks through data of paper PMC7981807.

No constants are given. Whether binding was seen depends on the method and setting. In cells and extracts the contact can be indirect. Binding can be weak; no strength is given.

In the experiment the target is NCOR (nuclear receptor corepressor), endogenous (human (endogenous in REH and Nalm6)). Put plainly: proximity ligation; Duolink PLA on endogenous proteins, dots per nucleus, in REH cells, Nalm6 cells and BCP-ALL patients' cells; cut-off two S.D. over the negative control, Fisher's exact test.

B1: CBFA2T3 (Core-Binding Factor Runt Domain Alpha Subunit 2 Translocated To 3), endogenous (protein, UniProt O75081 1-653)
chain: MPASRLRDRAASSASGSTCGSMSQTHPVLESGLLASAGCSAPRGPRKGGPAPVDRKAKASAMPDSPAEVKTQPRSTPPSMPPPPPAASQGATRPPSFTPHTHREDGPATLPHGRFHGCLKWSMVCLLMNGSSHSPTAINGAPCTPNGFSNGPATSSTASLSTQHLPPACGARQLSKLKRFLTTLQQFGSDISPEIGERVRTLVLGLVNSTLTIEEFHSKLQEATNFPLRPFVIPFLKANLPLLQRELLHCARLAKQTPAQYLAQHEQLLLDASASSPIDSSELLLEVNENGKRRTPDRTKENGSDRDPLHPEHLSKRPCTLNPAQRYSPSNGPPQPTPPPHYRLEDIAMAHHFRDAYRHPDPRELRERHRPLVVPGSRQEEVIDHKLTEREWAEEWKHLNNLLNCIMDMVEKTRRSLTVLRRCQEADREELNHWARRYSDAEDTKKGPAPAAARPRSSSAGPEGPQLDVPREFLPRTLTGYVPEDIWRKAEEAVNEVKRQAMSELQKAVSDAERKAHELITTERAKMERALAEAKRQASEDALTVINQQEDSSESCWNCGRKASETCSGCNAARYCGSFCQHRDWEKHHHVCGQSLQGPTAVVADPVPGPPEAAHSLGPSLPVGAASPSEAGSAGPSRPGSPSPPGPLDTVPR
For B1, the binding result was “binds”.
